No constants are given. Whether binding was seen depends on the method and setting. Binding calls can cover weak binding; strength is not graded here.
Target: GST-AMPK-C (291-552 a.a.) (UniProt P54646)
Assay: pull-down

By UniProt entry, the sequences of proteins in these tests, tags left out. Where a name states a change or a piece, a line headed by the entry shows the natural chain unless it says otherwise. Residues count along the entry.
UniProt P54646, residues 291-552: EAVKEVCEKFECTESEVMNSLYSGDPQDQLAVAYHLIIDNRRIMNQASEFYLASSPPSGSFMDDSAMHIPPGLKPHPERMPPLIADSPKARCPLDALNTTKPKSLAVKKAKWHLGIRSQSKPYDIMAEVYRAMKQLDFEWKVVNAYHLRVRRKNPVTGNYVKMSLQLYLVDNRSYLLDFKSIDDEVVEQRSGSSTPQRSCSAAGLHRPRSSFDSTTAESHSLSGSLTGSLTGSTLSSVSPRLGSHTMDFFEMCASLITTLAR
UniProt P62330: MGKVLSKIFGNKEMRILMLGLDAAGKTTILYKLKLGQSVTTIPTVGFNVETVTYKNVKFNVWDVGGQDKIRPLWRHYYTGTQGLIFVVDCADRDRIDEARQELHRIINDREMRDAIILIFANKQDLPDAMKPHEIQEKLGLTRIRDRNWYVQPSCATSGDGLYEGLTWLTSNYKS

binding: binds
Substance: His-Arf6 T27N-d13N (from UniProt P62330)

Source: publication doi:10.1101/2021.11.18.469188
